These results are taken from US20180201658A1 (MIT, published 2018).

In the test the target is KSBcl-2. The test can be described thus: solution binding of N-terminal fluorescein peptide (FIG. 1).

Results are given in words; binding and its absence hold for the method and conditions named. Binding can be weak; no strength is given.

Take RPEIWLGQSLQRLGDEINAYYAR (N-terminal fluorescein) [B3 peptide with N-terminal fluorescein]: the binding result is “binds”. The same measure for RPEIWMGQGLRRLGDEINAYYAR (N-terminal fluorescein) [A12 peptide with N-terminal fluorescein]: “binds”.
